Laboratory results taken from US20180162932A1 (ACADEMISCH MEDISCH CENTRUM, published 2018).
Results are given in words; binding and its absence hold for the method and conditions named. Some entries that bind do so weakly or less than the wild type.

Chains of the proteins cited; added tags and fusions are not shown. Lines headed by an entry give the natural chain unless they say otherwise; changes in a name come on top.
UniProt P12643: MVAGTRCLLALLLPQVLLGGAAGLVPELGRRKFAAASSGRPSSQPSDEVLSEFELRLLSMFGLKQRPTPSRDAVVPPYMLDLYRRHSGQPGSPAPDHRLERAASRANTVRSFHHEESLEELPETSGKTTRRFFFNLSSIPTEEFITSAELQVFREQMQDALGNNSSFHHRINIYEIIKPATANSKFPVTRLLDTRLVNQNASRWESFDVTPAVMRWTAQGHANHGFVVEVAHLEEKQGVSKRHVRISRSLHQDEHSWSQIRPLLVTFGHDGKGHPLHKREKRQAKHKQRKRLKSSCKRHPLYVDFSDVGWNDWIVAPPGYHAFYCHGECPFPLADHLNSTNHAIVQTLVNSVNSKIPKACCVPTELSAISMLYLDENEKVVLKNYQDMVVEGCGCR

What was measured:
[1] = target: T1, mature bone morphogenic protein 2 (human, UniProt P12643 283-396); test: summary
[2] = target: T2, human mature bone morphogenic protein 4 (human, UniProt P12644 295-408); test: summary
T2 sequence: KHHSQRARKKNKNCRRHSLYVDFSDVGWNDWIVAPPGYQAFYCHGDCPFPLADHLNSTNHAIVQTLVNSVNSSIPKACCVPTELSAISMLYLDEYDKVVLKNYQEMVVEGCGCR

[3] = target: T1, mature bone morphogenic protein 2; test: SPR, VHH on chip, BMP injected
[4] = target: T2, human mature bone morphogenic protein 4; test: SPR, VHH on chip, BMP injected
[5] = target: T3, human mature bone morphogenic protein 7 (human, UniProt P18075 293-431); test: SPR, VHH on chip, BMP injected
T3 construct: also called BMP7; BMP-7
T3 sequence: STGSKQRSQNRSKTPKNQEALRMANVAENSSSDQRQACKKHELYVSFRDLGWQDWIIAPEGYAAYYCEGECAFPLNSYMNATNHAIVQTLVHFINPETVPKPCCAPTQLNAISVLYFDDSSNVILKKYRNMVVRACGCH
Experimental: (§1) Serial dilutions (2.0-10 μg/ml) of purified VHHs were spotted on an amine-specific SensEye gold-film gel-type SPRchip (Ssens), using a Continuous Flow Microspotter (Wasatch Microfluidics, Salt Lake City, Utah, United States) as described (Lokate et al., 2007). BMP binding was analyzed on an IBIS MX96 (IBIS Technologies, Enschede, The Netherlands) instrument by performing injections with dilution series (0.05-2.0 μg/ml) of recombinant BMPs on the VHH-coated chip. In each injection, BMPs were injected and incubated for 8 min, followed by 15 min thorough washing with binding buffer (PBS+0.05% Tween20+0.05% sodium azide) to measure dissociation. Epitope binning was done by injecting VHH dilutions (2.0 μg/ml) over the chip, immediately after the dissociation step. Injections with blank binding buffer were used as reference. After each concatenated injection, the chip was regenerated with 10mM glycine-HCl, pH 2.0. Experimental data were processed with SPRintX software (IBIS Technologies) and kinetic parameters were determined using Scrubber2 software (BioLogic Software, Campbell, ACT, Australia). Binding constants were obtained by global fitting to a one-site binding model.

[6] = target: T1, mature bone morphogenic protein 2; test: western blot, unreduced mature recombinant BMPs
[7] = target: T2, human mature bone morphogenic protein 4; test: western blot, unreduced mature recombinant BMPs
[8] = target: T2, human mature bone morphogenic protein 4; test: SPR (IBIS), VHH spotted on the chip, BMP4 injected
[9] = target: T1, mature bone morphogenic protein 2; test: western blot of unreduced recombinant BMP, C8C8 as primary antibody
[10] = target: T2, human mature bone morphogenic protein 4; test: as above
[11] = target: T1, mature bone morphogenic protein 2; test: SPR (IBIS), VHH spotted on the chip, BMP2 injected
Experimental: In a first set of experiments, controls and VHHs (either as monomers or dimers) were coupled to SPR chips and the measurement of BMP affinities was obtained by injecting the different BMPs to the plate.
as §1

[12] = target: T4, human mature bone morphogenic protein 4 (human) (UniProt P12644); test: summary
T4 sequence: T2 sequence

[13] = target: T4, human mature bone morphogenic protein 4 (human); test: SPR, VHH on chip, BMP injected
[14] = target: T4, human mature bone morphogenic protein 4 (human); test: SPR sandwich cross-binding, C8 or E7 on chip
[15] = target: T4, human mature bone morphogenic protein 4 (human); test: western blot, unreduced mature recombinant BMPs
[16] = target: T4, human mature bone morphogenic protein 4 (human); test: SPR (IBIS), VHH spotted on the chip, BMP4 injected
[17] = target: T4, human mature bone morphogenic protein 4 (human); test: western blot of unreduced recombinant BMP, C4C4 as primary antibody
[18] = target: T4, human mature bone morphogenic protein 4 (human); test: SPR sandwich (epitope binning): BMP4 captured on the spotted molecule, then C4C4 injected [B, F]
[19] = target: T5, human mature bone morphogenic protein 5 (human, UniProt P22003 340-454); test: SPR, VHH on chip, BMP injected
T5 construct: Often printed as BMPS in the text; also called BMP5; BMPS (so in the source)
T5 sequence: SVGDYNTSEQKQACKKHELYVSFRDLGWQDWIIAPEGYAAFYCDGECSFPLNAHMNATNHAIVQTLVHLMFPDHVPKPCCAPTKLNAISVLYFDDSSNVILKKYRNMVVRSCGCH
Experimental: as §1

[20] = target: T5, human mature bone morphogenic protein 5; test: SPR (IBIS), VHH spotted on the chip, BMP5 injected
[21] = target: T6, human mature bone morphogenic protein 6 (human, UniProt P22004 375-513); test: SPR (IBIS), VHH spotted on the chip, BMP6 injected
T6 construct: also called BMP6; BMP-6
T6 sequence: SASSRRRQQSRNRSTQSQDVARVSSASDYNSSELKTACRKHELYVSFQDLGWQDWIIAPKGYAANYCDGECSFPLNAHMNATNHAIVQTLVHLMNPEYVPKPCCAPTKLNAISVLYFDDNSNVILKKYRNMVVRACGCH

[22] = target: T5, human mature bone morphogenic protein 5; test: summary of SPR results

Measured: binding

B1: C8C8 homo-bihead (designed binder)
chain: EVQLVESGGGLVQAGGSLRLSCAASGRTFRINDMGWYRQAPGKSRDMVARITSGGNTNYADSVKGRFTISRDNAKNTVYLQMNSLKPEDTAVYYCNADGLRFDSTRYRPFDSWGQGTQVTVSSGGGGSGGGGSEVQLVESGGGLVQAGGSLRLSCAASGRTFRINDMGWYRQAPGKSRDMVARITSGGNTNYADSVKGRFTISRDNAKNTVYLQMNSLKPEDTAVYYCNADGLRFDSTRYRPFDSWGQGTQVTVSS
binds: [1] | [2] | [3] | [4] | [5] | [6] | [7] | [8] | [9] | [10] | [11]

B2: C4C4 homo-bihead (designed binder)
chain: EVQLVESGGGLVQAGGSLRLSCAASGRTFSTYAMGWFRQAPGKEREFVAAISKGGGITYYSDSVRGRFTISKENAKNTVYLQMNSLKPEDTAVYYCAADPVSSVAKSPVAYPYWGQGTQVTVSSGGGGSGGGGSEVQLVESGGGLVQAGGSLRLSCAASGRTFSTYAMGWFRQAPGKEREFVAAISKGGGITYYSDSVRGRFTISKENAKNTVYLQMNSLKPEDTAVYYCAADPVSSVAKSPVAYPYWGQGTQVTVSS
notes: also called C4C4 dimer
binds: [12] | [3] | [13] | [14] | [15] | [16] | [17] | [11] | [18]

B3: C8E7 hetero-bihead (designed binder)
chain: EVQLVESGGGLVQAGGSLRLSCAASGRTFRINDMGWYRQAPGKSRDMVARITSGGNTNYADSVKGRFTISRDNAKNTVYLQMNSLKPEDTAVYYCNADGLRFDSTRYRPFDSWGQGTQVTVSSGGGGSGGGGSEVQLVESGGGLVQAGGSLRLSCAASGSIRGFVAMAWYRQAPGKQREWVATVTNGGTLYGDSVKGRFTGSRDNAKNTVYLQMNSLKPEDTAVYYCALRQIGASGYDYWGQGTQVTVSS
binds: [19] | [20] | [21]

B4: VHH E7 (VHH)
VHH: EVQLVESGGGLVQAGGSLRLSCAASGSIRGFVAMAWYRQAPGKQREWVATVTNGGTLYGDSVKGRFTGSRDNAKNTVYLQMNSLKPEDTAVYYCALRQIGASGYDYWGQGTQVTVSS
notes: also called E7 monomer
binds: [22] | [19] | [20]
